# Test system: cutaneous pain
# Test: Experimental cutaneous pain (pressure, electrical, thermal stimuli on skin) in healthy volunteers
# Assay type: in vivo, human
# Settings: oral solution, morphine 30 mg, oxycodone 15 mg, FIG. 1
# From the text: The experimental studies referred to below, are based on a comparison of different drugs at healthy volunteers by applying experimental pain, since clinical studies provide insufficient information, partly due to the great difference that exists between patients and partly due to the fact that most diseases produce many symptoms other than pain, which affects the assessment of pain-killing efficacy. Experimental pain can be administered under controlled conditions in healthy volunteers so that this bias can be avoided. However, several experimental stimuli are necessary to simulate the complex clinical situation. It is also necessary to use different opioids to obtain sufficient differentiated knowledge about deep pain on different pain mechanisms, and an assessment of the clinical action spectrum of opioids. For testing the efficacy of different opioids for treating visceral pain a standardized test battery of cutaneous, muscular and visceral stimuli was applied. Blood samples were taken for determination of the opioid concentration in plasma.
# In recent years methods by which deep and visceral stimuli can be administered reproducibly have been developed. These methods allow activation of the pain system with different stimuli, with the possibility of activating various types of nerve pathways in the same experiment. […]
smiles,measurement,value
CN1CC[C@]23c4c5ccc(O)c4O[C@H]2[C@@H](O)C=C[C@H]3[C@H]1C5 [morphine],analgesic effect in the skin versus placebo,significantly more analgesic than placebo

# — patent US9271974B2, “Use of oxycodone for treating visceral pain” (PURDUE PHARMA L.P., priority 2005, dated 2016)
